Data: the supplement of paper PMC12009310
Counter-ions that a name gives are not always drawn. ± gives the standard deviation of the averaged measurements. The list shows a part of the results. Baselines shift from plate to plate; read single values as rough.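 The cells are a mouse kidney inner medullary collecting duct line, silenced either for the ciliary gene Rpgrip1l or with a non-targeting control siRNA.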

Experiments:
mIMCD3 [1] = experiment: robust z score of cell number vs plate controls; higher = more cells (less cytotoxic); settings: 10 µM, 48 h
mIMCD3 [2] = experiment: robust z score of cilia incidence (% cells with single cilium) vs plate controls; higher = more ciliated cells; settings: 10 µM; 48 h; siRNA: siScr
mIMCD3 [3] = experiment: robust z score of cilia incidence (% cells with single cilium) vs plate controls; higher = more ciliated cells (rescue of cilia loss); settings: 10 µM; 48 h; siRNA: siRpgrip1l

| Compound | robust z score of cell number (mIMCD3 [1]; siRNA: siRpgrip1l) | robust z score of cell number (mIMCD3 [1]; siRNA: siScr) | robust z score of cilia incidence (mIMCD3 [2]) | robust z score of cilia incidence (mIMCD3 [3]) |
| --- | --- | --- | --- | --- |
| CC(C)N(CCC(=O)c1ccc2ccccc2c1)Cc1ccccc1 | -307 ± 220 | -40.6 ± 9.5 | -31.5 ± 22 | -24.2 ± 9.9 |
| COC(=O)c1sccc1S(=O)(=O)Nc1ccc(Nc2ccccc2)cc1OC | -29.9 ± 34 | -10.6 ± 7.9 | -12 ± 9.9 | -26.6 ± 15 |
| CC1(C(=O)O)NCCc2cc(O)c(O)cc21 (centres undefined) [Salsolinol-1-carboxylic acid] | -8.46 ± 6.3 | -8.57 ± 16 | 0.698 ± 1.9 | -10.2 ± 2.4 |
| CN[C@H]1CC[C@@H](c2ccc(Cl)c(Cl)c2)c2ccccc21 [Sertraline hydrochloride] | -29.8 ± 15 | -27.2 ± 4.6 | -49.1 ± 36 | -34.3 ± 17 |
| CN1c2cc3c(cc2N=C(c2ccc(C(=O)O)cc2)c2ccccc21)C(C)(C)CCC3(C)C | -40.3 ± 26 | -53.3 ± 26 | -35.3 ± 18 | -58.8 ± 11 |
| COC(=O)C1=C(C)NC(C)=C(C(=O)NCCCN2CCC(c3ccccc3)(c3ccccc3)CC2)C1c1ccc([N+](=O)[O-])cc1 (centres undefined) | -29.8 ± 15 | -27.3 ± 4.5 | -50.5 ± 38 | -35 ± 18 |
| CC(C)c1ccc2c(c1)CC[C@H]1[C@](C)(CN)CCC[C@]21C [Lylamine hydrochloride] | -41 ± 26 | -54.7 ± 29 | -35 ± 16 | -55.3 ± 1.4 |
| COc1cc2c(Nc3ccc(NC(=O)c4ccccc4)cc3)ncnc2cc1OCCCN1CCOCC1 | -29.9 ± 15 | -27.6 ± 4.8 | -48.6 ± 39 | -34.5 ± 17 |
| CC1OC2(CS1)CN1CCC2CC1 (centres undefined) [Cevimeline hydrochloride] | -36.2 ± 27 | -39.74 ± 0.37 | -41.5 ± 12 | -24.7 ± 10 |
| COc1ccc(-c2ccc(=N)n(CCCC(=O)O)n2)cc1 | -19.6 ± 17 | -2.8 ± 0.73 | 1.63 ± 0.38 | -6.49 ± 4.2 |
| COc1cc2c(cc1O)CC[C@@H]1[C@@H]2CC[C@]2(C)[C@@H](O)CC[C@@H]12 [2-Methoxyestradiol] | -39.3 ± 35 | -39.7 ± 26 | -94.6 ± 54 | -95.5 ± 82 |
| Cc1cc(C)c(/C=C2\C(=O)Nc3ccccc32)[nH]1 | -8.97 ± 7 | -1.32 ± 3.5 | 0.648 ± 1.4 | -5.05 ± 1.3 |
| CCO/C(O)=C1\C(C)=NC(c2ccccc2)=C(C(=O)OCc2ccc([N+](=O)[O-])cc2)C1C#Cc1ccccc1 (centres undefined) | -77.2 ± 69 | -6.18 ± 0.66 | -2.24 ± 4.4 | -15.7 ± 0.35 |
| CC1(COc2ccc(CC3SC(=O)NC3=O)cc2)CCCCC1 (centres undefined) [Ciglitazone] | -303 ± 220 | -40.4 ± 9.6 | -54.9 ± 12 | -33 ± 9.5 |
| Nc1nc(NCC2CCC(CNS(=O)(=O)c3cccc4ccccc34)CC2)nc2ccccc12 (centres undefined) | -2.69 ± 4.9 | -1.15 ± 3.7 | 1.54 ± 0.62 | -4.79 ± 4.5 |
| O=C(O)Cc1cccc(OCCCN(Cc2cccc(C(F)(F)F)c2Cl)CC(c2ccccc2)c2ccccc2)c1 [GW 3965 hydrochloride] | -32.5 ± 11 | -139 ± 100 | -66.7 ± 15 | -58.5 ± 8.3 |

A draw from above in order of molecular weight, low to high.

| Compound | robust z score of cell number (mIMCD3 [1]; siRNA: siRpgrip1l) | robust z score of cell number (mIMCD3 [1]; siRNA: siScr) | robust z score of cilia incidence (mIMCD3 [2]) | robust z score of cilia incidence (mIMCD3 [3]) |
| --- | --- | --- | --- | --- |
| Cc1cc(C)c(/C=C2\C(=O)Nc3ccccc32)[nH]1 | -8.97 ± 7 | -1.32 ± 3.5 | 0.648 ± 1.4 | -5.05 ± 1.3 |
| COc1cc2c(cc1O)CC[C@@H]1[C@@H]2CC[C@]2(C)[C@@H](O)CC[C@@H]12 [2-Methoxyestradiol] | -39.3 ± 35 | -39.7 ± 26 | -94.6 ± 54 | -95.5 ± 82 |
| CC1(COc2ccc(CC3SC(=O)NC3=O)cc2)CCCCC1 (centres undefined) [Ciglitazone] | -303 ± 220 | -40.4 ± 9.6 | -54.9 ± 12 | -33 ± 9.5 |
